# Experimental data reported in patent publication US5935952A, “Quinolone- or naphthylidone-carboxylic acid derivates or their salts” (Toyama Chemical Co., LTD., priority 1994, dated 1999).
# System: S. aureus F-597
# Test: Antibacterial activity (MIC, agar dilution, standard method of Japan Society of Chemotherapy) against S. aureus F-597**
# Format: cell-based
# Details: Staphylococcus aureus, MRSA, 20 h
# Excerpt: According to the standard method of Japan Society of Chemotherapy [CHEMOTHERAPY, vol.
# **: MRSA (methicillin-resistant S. aureus)
smiles,measurement,value
"O=C(O)c1cn(C2CC2)c2cc(N3CCNCC3)c(F)cc2c1=O [Compound B, 1-cyclopropyl-6-fluoro-7-(1-piperazinyl)-1,4-dihydro-4-oxoquinoline-3-carboxylic acid, reference compound]",MIC,6.25 µg/mL
